Data from the supplement of paper PMC10849652.
Some of the results follow.

The chains behind the UniProt entries cited, without tags or fusion partners. Where a name states a change or a piece, a line headed by the entry shows the natural chain unless it says otherwise.
UniProt O00203: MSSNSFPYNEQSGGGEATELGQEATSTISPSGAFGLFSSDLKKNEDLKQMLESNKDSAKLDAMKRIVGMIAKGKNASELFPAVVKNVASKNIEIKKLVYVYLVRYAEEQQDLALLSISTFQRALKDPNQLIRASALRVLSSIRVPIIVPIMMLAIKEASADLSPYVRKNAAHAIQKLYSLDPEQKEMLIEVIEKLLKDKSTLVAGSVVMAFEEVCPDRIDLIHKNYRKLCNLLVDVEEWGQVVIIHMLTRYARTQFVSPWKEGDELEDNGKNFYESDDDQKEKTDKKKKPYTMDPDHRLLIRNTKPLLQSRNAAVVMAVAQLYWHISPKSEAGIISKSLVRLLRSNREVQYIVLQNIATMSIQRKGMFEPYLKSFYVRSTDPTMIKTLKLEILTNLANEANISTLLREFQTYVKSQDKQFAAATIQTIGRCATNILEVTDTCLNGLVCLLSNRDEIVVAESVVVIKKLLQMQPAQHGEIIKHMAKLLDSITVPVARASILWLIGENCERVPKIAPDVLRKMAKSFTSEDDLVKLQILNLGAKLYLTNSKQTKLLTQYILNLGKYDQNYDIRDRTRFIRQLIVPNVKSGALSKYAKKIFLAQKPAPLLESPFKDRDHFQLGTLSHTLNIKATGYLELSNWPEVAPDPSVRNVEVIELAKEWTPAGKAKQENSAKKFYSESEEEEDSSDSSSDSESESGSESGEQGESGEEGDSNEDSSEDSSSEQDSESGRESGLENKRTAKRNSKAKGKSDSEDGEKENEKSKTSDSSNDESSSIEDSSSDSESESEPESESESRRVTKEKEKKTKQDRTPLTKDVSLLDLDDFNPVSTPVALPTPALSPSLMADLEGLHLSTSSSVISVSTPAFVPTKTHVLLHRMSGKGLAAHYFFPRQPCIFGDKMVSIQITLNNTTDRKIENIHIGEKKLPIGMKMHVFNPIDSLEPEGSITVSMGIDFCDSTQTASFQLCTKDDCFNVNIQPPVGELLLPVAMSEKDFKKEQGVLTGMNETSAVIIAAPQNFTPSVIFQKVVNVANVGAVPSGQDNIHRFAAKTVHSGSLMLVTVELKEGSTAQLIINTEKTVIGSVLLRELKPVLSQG
UniProt P18085: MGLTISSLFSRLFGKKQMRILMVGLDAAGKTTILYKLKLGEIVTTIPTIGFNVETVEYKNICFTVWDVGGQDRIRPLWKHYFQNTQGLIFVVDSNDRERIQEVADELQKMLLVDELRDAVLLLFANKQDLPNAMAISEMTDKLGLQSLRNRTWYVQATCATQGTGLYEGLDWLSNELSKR
UniProt Q9NW15: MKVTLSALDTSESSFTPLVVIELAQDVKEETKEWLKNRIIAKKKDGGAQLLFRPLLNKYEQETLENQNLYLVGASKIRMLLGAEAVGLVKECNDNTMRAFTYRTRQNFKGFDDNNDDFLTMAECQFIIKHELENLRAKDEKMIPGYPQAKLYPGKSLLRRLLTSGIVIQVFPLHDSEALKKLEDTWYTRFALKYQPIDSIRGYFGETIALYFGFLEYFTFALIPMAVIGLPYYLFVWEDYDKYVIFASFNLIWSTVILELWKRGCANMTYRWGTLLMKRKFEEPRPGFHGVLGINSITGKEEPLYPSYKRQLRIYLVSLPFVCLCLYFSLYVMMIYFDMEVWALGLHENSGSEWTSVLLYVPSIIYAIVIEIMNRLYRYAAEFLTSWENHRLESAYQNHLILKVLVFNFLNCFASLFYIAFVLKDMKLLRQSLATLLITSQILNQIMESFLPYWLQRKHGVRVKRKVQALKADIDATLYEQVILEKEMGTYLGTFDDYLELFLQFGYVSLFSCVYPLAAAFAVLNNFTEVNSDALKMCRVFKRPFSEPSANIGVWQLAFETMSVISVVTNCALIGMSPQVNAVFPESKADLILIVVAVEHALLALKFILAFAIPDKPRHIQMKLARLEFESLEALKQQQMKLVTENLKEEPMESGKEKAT
UniProt P09525: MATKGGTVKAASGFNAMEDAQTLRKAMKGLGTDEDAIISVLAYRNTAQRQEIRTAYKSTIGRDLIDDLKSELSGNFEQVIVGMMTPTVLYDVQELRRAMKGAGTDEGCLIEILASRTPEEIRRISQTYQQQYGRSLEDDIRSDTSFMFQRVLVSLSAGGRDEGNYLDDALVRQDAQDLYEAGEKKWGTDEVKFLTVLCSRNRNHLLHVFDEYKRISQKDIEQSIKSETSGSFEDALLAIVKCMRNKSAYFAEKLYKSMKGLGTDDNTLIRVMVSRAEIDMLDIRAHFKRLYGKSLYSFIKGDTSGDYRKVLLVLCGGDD
UniProt Q9BZZ5: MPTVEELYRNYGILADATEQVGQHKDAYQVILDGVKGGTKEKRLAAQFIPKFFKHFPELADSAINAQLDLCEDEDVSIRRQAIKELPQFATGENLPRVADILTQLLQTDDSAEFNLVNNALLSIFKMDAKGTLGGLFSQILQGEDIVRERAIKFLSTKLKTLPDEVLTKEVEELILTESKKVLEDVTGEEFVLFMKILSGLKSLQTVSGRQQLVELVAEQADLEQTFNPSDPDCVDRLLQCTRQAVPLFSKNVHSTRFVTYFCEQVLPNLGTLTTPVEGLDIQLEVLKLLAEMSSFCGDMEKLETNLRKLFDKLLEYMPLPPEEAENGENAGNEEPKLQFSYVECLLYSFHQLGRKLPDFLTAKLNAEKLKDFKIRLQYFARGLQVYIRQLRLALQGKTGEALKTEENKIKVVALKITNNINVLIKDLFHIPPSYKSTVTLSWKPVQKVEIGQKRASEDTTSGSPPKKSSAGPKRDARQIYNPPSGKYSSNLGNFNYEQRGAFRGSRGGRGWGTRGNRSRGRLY
UniProt Q8N392: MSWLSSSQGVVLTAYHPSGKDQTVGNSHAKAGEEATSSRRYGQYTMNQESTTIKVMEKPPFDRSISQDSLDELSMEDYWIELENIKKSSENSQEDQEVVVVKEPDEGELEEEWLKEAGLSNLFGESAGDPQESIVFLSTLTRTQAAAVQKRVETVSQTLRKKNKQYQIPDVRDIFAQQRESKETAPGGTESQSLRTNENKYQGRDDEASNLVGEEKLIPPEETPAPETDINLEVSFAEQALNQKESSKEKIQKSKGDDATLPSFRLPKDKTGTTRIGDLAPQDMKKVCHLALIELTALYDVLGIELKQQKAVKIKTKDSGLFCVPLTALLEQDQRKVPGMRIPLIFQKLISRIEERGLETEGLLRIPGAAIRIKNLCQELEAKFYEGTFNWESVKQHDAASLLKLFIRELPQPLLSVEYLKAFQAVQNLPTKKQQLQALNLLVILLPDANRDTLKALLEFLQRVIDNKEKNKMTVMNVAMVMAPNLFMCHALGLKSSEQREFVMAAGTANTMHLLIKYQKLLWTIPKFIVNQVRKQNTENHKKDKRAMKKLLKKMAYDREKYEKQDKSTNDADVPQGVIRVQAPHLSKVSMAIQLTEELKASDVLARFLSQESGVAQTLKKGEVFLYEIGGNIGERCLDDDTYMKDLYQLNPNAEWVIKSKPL
UniProt Q9BUR5: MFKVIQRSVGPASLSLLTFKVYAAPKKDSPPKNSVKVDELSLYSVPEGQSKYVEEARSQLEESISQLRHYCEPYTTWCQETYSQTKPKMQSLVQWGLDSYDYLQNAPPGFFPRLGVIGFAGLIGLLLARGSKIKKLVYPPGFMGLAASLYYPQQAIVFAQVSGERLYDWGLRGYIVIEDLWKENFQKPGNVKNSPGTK
UniProt O14727: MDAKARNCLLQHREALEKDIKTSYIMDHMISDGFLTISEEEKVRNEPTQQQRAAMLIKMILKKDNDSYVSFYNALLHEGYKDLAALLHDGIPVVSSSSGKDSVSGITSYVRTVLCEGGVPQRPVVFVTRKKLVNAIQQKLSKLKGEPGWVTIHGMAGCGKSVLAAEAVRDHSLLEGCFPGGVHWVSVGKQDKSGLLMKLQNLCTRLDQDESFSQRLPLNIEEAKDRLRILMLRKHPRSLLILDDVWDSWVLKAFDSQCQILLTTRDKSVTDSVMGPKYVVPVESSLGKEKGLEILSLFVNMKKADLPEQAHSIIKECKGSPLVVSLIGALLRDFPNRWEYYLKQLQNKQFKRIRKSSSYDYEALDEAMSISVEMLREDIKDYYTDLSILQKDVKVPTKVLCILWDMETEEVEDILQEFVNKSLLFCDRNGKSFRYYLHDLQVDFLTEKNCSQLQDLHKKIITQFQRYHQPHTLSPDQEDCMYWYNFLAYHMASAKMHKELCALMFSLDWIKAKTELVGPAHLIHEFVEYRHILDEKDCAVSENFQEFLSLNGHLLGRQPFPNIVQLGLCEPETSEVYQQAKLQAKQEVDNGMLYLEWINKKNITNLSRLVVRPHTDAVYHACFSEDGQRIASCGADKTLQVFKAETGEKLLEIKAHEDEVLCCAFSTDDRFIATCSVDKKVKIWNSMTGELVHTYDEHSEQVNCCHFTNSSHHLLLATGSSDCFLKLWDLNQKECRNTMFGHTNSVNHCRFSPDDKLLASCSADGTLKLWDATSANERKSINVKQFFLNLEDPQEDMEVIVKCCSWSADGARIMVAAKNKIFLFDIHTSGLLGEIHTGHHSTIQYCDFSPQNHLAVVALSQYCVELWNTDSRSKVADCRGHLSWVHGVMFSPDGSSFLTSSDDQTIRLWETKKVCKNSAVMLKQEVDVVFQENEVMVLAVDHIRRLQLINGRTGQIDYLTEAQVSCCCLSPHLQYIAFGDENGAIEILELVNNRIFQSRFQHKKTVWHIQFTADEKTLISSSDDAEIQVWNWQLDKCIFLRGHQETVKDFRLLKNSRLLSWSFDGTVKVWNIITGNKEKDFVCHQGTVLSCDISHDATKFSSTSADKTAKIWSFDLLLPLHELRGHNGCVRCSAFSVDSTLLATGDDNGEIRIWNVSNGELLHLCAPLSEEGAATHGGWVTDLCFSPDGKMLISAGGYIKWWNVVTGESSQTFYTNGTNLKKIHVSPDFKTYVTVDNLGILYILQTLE
UniProt Q9Y4X5: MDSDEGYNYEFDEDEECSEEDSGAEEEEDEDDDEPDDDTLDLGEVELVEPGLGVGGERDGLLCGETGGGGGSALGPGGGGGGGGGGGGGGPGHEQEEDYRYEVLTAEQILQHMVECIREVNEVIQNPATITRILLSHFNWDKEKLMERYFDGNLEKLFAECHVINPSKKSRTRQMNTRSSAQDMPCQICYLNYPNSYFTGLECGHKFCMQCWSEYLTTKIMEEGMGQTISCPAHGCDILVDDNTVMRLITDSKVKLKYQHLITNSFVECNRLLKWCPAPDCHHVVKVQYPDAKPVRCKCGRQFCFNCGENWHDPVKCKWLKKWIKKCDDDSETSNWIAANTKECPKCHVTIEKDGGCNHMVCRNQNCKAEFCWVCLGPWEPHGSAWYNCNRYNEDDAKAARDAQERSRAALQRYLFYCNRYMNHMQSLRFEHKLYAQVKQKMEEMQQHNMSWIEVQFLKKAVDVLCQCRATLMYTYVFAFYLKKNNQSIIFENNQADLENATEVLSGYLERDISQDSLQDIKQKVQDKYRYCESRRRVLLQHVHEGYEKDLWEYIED
UniProt Q9Y2T2: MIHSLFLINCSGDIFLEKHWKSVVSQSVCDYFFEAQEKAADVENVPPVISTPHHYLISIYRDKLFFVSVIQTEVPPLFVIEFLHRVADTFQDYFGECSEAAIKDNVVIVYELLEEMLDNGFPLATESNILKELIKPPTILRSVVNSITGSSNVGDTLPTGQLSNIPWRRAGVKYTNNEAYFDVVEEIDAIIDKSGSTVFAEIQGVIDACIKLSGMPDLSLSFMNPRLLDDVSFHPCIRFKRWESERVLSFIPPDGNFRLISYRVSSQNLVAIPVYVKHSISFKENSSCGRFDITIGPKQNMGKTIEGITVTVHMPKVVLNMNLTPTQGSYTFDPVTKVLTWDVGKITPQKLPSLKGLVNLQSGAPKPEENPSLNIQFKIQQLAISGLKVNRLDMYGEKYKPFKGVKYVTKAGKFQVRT
UniProt Q9NRW3: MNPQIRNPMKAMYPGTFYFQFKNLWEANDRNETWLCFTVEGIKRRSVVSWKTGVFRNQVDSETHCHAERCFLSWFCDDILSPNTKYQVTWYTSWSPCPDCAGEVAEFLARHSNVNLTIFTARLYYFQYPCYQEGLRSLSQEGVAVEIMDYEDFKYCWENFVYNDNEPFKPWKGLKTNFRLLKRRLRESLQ
UniProt P78540: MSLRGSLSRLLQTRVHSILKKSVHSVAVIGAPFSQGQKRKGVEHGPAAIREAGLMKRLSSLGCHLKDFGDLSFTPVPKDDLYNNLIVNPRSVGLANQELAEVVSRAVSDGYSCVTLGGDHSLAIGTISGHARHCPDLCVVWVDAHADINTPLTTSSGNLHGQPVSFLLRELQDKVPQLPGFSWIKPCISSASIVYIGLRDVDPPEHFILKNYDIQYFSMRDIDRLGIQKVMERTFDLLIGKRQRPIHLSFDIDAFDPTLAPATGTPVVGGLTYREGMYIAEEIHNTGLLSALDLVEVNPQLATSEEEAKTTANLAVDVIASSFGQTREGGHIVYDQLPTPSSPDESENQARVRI

Tests used:
Assay in all cases: log2 fold change, soluble protein after heating vs DMSO (PISA); higher = thermal stabilisation; K562 cells, 10 uM, 30 min; active = over 0.2 and 3.5 SD of the protein, either way, in both replicates (recomputed)
[1] = compound: NC(=O)Nc1cc(-c2cccc(F)c2)sc1C(=O)N[C@H]1CCCNC1
Outline: (§1)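 K562 cells (2×10^6 cells/mL) were treated with 10 μM compound for 30 min, and aliquots were heated for 3 min over 48°C-58°C. Pooled aliquots were extracted in PBS with 0.5% NP-40 at 4°C, and the supernatant after 21,000xg for 90 min was measured by TMTpro 16plex LC-MS/MS with channel sums equalised. Reported thermal stability, relative to control samples and from duplicates, is a log2 fold change.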

[2] = compound: NC(=O)c1cnc(N[C@@H]2CCCC[C@@H]2N)nc1Nc1cccc(-n2nccn2)c1
Outline: as §1

[3] = compound: NC1(c2ccc(-c3nc4ccn5c(=O)[nH]nc5c4cc3-c3ccccc3)cc2)CCC1
Outline: as §1

[4] = compound: NCC(=O)Nc1ccc(-n2nc(C(F)(F)F)cc2-c2ccc3c(ccc4ccccc43)c2)cc1
Outline: as §1

[5] = compound: Nc1ccccc1NC(=O)c1ccc(CNC(=O)OCc2cccnc2)cc1 [entinostat]
Outline: as §1

[6] = compound: O=C(CCCCCCC(=O)Nc1ccccc1)NO [vorinostat]
Outline: as §1

[7] = compound: O=C(CCCCCCNC(=O)c1cnc(N(c2ccccc2)c2ccccc2Cl)nc1)NO [citarinostat]
Outline: as §1

[8] = compound: O=C(O)c1ccc2c(c1)nc(Nc1cccc(Cl)c1)c1ccncc12 [silmitasertib]
Outline: as §1

[9] = compound: O=C1NC(=O)C(c2cnc3ccccn23)=C1c1cn2c3c(cc(F)cc13)CN(C(=O)N1CCCCC1)CC2
Outline: as §1

[10] = compound: c1cc(OCCN2CCCCC2)cc(-c2n[nH]c3ccc(-c4nnc[nH]4)cc23)c1
Outline: as §1

Measured: log2 fold change

AP3B1 (UniProt O00203)
inactive: [1] -0.046 | [2] -0.012 | [3] -0.066 | [4] -0.034 | [5] 0.015 | [6] 0.032 | [7] 0.064 | [8] 0.003 | [9] -0.025 | [10] -0.04

ARF4 (UniProt P18085)
inactive: [1] -0.011 | [2] 0.025 | [3] -0.082 | [4] -0.06 | [5] -0.002 | [6] -0.024 | [7] 0.041 | [8] -0.017 | [9] -0.069 | [10] -0.004

ANO10 (UniProt Q9NW15)
inactive: [1] -0.021 | [2] -0.049 | [3] -0.048 | [4] -0.018 | [5] 0.02 | [6] 0.021 | [7] 0.053 | [8] -0.004 | [9] -0.095 | [10] 0.009

ARHGEF2 (UniProt Q92974)
inactive: [1] 0.04 | [2] 0.019 | [3] 0.192 | [4] 0.063 | [5] 0.028 | [6] 0.088 | [7] -0.077 | [8] 0.203 | [9] 0.395 | [10] -0.085

ANXA4 (UniProt P09525)
inactive: [1] -0.041 | [2] -0.039 | [3] -0.095 | [4] -0.035 | [5] 0.06 | [6] -0.011 | [7] 0.052 | [8] 0.016 | [9] -0.052 | [10] 0.118

API5 isoform 2 (UniProt Q9BZZ5)
inactive: [1] 0.012 | [2] 0.043 | [3] -0.065 | [4] -0.092 | [5] -0.03 | [6] 0.075 | [7] -0.004 | [8] 0.007 | [9] -0.103 | [10] 0.004

ARHGAP18 (UniProt Q8N392)
inactive: [1] -0.137 | [2] -0.141 | [3] -0.144 | [4] -0.155 | [5] 0.131 | [6] 0.035 | [7] 0.053 | [8] 0.115 | [9] 0.059 | [10] -0.078

APOO (UniProt Q9BUR5)
inactive: [1] 0.021 | [2] 0 | [3] -0.035 | [4] -0.037 | [5] 0.007 | [6] 0.108 | [7] -0.003 | [8] 0 | [9] -0.007 | [10] 0.017

APAF1 (UniProt O14727)
inactive: [1] 0.016 | [2] 0.033 | [3] -0.116 | [4] -0.104 | [5] 0.031 | [6] 0.048 | [7] 0.093 | [8] -0.116 | [9] -0.062 | [10] -0.016

ARIH1 (UniProt Q9Y4X5)
inactive: [1] -0.02 | [2] -0.037 | [3] -0.024 | [4] 0.015 | [5] -0.02 | [6] -0.017 | [7] 0.012 | [8] 0.005 | [9] -0.062 | [10] -0.015

ANKRD17 (UniProt O75179)
inactive: [1] 0.014 | [2] -0.158 | [3] 0.003 | [4] -0.15 | [5] 0.033 | [6] 0.071 | [7] -0.068 | [8] 0.042 | [9] 0.229 | [10] -0.084

AP3M1 (UniProt Q9Y2T2)
inactive: [1] -0.012 | [2] -0.07 | [3] -0.047 | [4] -0.019 | [5] 0.037 | [6] -0.003 | [7] 0.068 | [8] 0.02 | [9] -0.029 | [10] -0.004

APOBEC3C (UniProt Q9NRW3)
inactive: [1] 0 | [2] -0.075 | [3] 0.156 | [4] 0.025 | [5] -0.006 | [6] -0.309 | [7] -0.066 | [8] 0.152 | [9] 0.213 | [10] -0.19

ARG2 (UniProt P78540)
inactive: [1] 0.055 | [2] -0.045 | [3] -0.11 | [4] 0.01 | [5] -0.065 | [6] -0.022 | [7] 0.016 | [8] -0.017 | [9] -0.004 | [10] -0.037

Quoted at random: two entries already listed.
AP3M1 (UniProt Q9Y2T2)
inactive: [1] -0.012 | [2] -0.07 | [3] -0.047 | [4] -0.019 | [5] 0.037 | [6] -0.003 | [7] 0.068 | [8] 0.02 | [9] -0.029 | [10] -0.004

ARIH1 (UniProt Q9Y4X5)
inactive: [1] -0.02 | [2] -0.037 | [3] -0.024 | [4] 0.015 | [5] -0.02 | [6] -0.017 | [7] 0.012 | [8] 0.005 | [9] -0.062 | [10] -0.015
